What all share (test): protein microarray (ProtoArray v5.0), streptavidin-Alexa Fluor 647
What all share (settings): 3'-biotin; 20 mM Tris (pH 7.5), 5 mM MgCl2, 100 mM KCl, 0.1% Tween-20, A/T-rich and random oligonucleotide blockers; temperature not stated; high values mean tight binding

Assay [1] relates to RAB32 (human).
Assay [2] relates to RAB33A (human).
Assay [3] deals with RAB33B (human).
The subject of assay [4] is RAB34 (human).
The test system of assay [5] is RAB37 (human).
The subject of assay [6] is RAB39 (human).
The subject of assay [7] is RAB3B (human).
The test system of assay [8] is RAB3C (human).
The subject of assay [9] is RAB3IL1 (human).
The test system of assay [10] is RAB43 (human).

Some of the results follow.

Regarding “GGGAGGCTGAGGCAGG [G4-1 biotinylated (PQS2)]”, the binding signal in assay [1] was -0.25 z-score; in assay [2], -0.29 z-score; in [3], -0.34 z-score; in assay [4], -0.308 z-score; in assay [5] it was -0.335 z-score; in [6], -0.305 z-score. Further, the binding signal in assay [7] was -0.335 z-score; in [8], -0.339 z-score; in [9], -0.319 z-score; in assay [10] it was -0.307 z-score.

(Values after paper PMC5996148.)
